The first data set can be described thus: peptide made by a vendor (Fmoc solid-phase peptide synthesis). Particulars: whole synthesis.
On to O*GQLGLAGP(methylethyl), for which the “purity (crude or final not stated)” value is 97.4%.
Still for that read-out and setting: the same measure for O*GQDGLA: 97.4%.

Another data set can be described thus: general procedure: Fmoc solid-phase peptide synthesis. The settings on record: whole synthesis.
In the case of O*GQLGLAGPK(NH-PEG1-NH-Boc) [YDE-093], the “purity (crude or final not stated)” value is on record as 99.1%.
With O*GQLGLAGP(azetidine), the “purity (crude or final not stated)” value is on record as 97.9%.
Take O*GQLGLAGPK(NH-PEG1-NH-Cbz) [YDE-096]: the “purity (crude or final not stated)” value came out at 95.4%.
As for O*GQLGLAGP, the “purity (crude or final not stated)” value is given as 98.7%.
The same measure, in the same setting: the same measure for O*GQLGLAGP(pyrroidine): 97.2%; for O*GQLGLAGP(isopropylethyl): 98.2%.
The same measure, in the same setting: to O*GQLGLAGP(diethyl) belongs 97.2%; to O*GQLGLAGP(dimethyl), 96.7%.

The values are drawn from US20230146455A1 (Yuyu Pharma, Inc., priority 2020, published 2023).
